Measured values taken from publication PMC9691347, “C9orf72 regulates the unfolded protein response and stress granule formation by interacting with eIF2α” (Theranostics, 2022).

Target: T1, Flag-C9orf72 (long isoform) (human) (UniProt Q96LT7)
T1 sequence: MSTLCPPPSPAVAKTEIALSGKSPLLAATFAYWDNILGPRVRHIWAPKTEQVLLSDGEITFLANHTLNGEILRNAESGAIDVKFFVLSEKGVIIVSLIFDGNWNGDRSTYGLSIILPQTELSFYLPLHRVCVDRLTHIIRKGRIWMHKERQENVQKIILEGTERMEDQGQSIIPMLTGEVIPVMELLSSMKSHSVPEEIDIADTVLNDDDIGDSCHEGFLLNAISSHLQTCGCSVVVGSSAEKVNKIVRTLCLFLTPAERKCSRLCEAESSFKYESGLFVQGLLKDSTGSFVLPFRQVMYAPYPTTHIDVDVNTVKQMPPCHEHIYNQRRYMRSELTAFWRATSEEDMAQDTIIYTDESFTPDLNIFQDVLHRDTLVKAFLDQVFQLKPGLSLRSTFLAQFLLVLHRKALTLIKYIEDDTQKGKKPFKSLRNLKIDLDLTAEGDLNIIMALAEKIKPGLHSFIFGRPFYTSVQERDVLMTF
Assay: co-IP; HEK-293T cells co-transfected with Flag-C9orf72 and HA tagged eIF2α wild type, S51A or S51D

| Substance | binding |
| --- | --- |
| HA tagged phosphomimetic eIF2α (S51D) | binds |
| HA tagged nonphosphorylatable eIF2α (S51A) | binds |

No constants are given. Whether binding was seen depends on the method and setting. Binding seen in cells or lysates may run through a third protein. Binding calls can cover weak binding; strength is not graded here. Sequences can lack the tags named with a protein.
